# This is one part of the list. The calls rarely recur for the same compound in another form.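 Kinases, fused to nanoluciferase, were expressed in K562 cells; luminescence was measured every 4 h from 2 to 18 h as percent of control (DMSO = 100%, positive control = 0%). A time point is decreased if signal falls significantly (2 sigma). Hits were called by the authors by a rule that is not shown; the count of time points alone does not decide it.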
# Amino acid sequences for entries named in this document (tags omitted). A change or cut given only in a name is not applied to a line headed by its entry.
# UniProt P50613: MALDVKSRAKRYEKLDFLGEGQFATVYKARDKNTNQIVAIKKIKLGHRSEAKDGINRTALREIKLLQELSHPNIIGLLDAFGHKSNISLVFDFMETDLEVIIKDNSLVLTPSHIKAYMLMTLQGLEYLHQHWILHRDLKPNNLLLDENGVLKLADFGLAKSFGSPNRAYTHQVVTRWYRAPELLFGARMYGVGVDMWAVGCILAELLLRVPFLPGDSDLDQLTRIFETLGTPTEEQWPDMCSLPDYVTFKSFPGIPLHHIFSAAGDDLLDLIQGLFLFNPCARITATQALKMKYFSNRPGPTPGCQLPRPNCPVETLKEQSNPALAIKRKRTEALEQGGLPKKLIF
# UniProt P50750, whole entry: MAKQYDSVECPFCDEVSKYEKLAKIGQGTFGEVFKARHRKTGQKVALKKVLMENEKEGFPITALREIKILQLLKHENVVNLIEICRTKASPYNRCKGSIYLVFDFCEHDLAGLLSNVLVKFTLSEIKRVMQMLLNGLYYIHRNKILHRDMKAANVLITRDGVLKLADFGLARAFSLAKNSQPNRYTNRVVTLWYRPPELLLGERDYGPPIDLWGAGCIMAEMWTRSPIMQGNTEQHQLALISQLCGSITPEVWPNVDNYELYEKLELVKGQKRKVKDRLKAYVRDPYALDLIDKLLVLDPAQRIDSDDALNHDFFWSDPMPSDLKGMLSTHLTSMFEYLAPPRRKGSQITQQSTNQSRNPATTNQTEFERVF
# UniProt O96017, whole entry: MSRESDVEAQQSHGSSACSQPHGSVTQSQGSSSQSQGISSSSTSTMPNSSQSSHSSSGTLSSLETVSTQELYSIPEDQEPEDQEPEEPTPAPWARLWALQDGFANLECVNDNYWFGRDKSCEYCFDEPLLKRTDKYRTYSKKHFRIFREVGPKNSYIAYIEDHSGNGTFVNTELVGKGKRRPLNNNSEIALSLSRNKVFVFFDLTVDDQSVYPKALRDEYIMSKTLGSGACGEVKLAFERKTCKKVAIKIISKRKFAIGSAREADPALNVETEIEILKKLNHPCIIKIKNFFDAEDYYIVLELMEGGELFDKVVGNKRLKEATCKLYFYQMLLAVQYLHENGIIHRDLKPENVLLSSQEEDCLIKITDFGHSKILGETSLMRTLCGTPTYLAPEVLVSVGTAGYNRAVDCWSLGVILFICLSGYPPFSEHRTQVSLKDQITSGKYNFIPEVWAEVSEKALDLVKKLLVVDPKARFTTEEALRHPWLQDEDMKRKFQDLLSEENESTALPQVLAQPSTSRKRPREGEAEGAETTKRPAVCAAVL
# UniProt P07333, whole entry: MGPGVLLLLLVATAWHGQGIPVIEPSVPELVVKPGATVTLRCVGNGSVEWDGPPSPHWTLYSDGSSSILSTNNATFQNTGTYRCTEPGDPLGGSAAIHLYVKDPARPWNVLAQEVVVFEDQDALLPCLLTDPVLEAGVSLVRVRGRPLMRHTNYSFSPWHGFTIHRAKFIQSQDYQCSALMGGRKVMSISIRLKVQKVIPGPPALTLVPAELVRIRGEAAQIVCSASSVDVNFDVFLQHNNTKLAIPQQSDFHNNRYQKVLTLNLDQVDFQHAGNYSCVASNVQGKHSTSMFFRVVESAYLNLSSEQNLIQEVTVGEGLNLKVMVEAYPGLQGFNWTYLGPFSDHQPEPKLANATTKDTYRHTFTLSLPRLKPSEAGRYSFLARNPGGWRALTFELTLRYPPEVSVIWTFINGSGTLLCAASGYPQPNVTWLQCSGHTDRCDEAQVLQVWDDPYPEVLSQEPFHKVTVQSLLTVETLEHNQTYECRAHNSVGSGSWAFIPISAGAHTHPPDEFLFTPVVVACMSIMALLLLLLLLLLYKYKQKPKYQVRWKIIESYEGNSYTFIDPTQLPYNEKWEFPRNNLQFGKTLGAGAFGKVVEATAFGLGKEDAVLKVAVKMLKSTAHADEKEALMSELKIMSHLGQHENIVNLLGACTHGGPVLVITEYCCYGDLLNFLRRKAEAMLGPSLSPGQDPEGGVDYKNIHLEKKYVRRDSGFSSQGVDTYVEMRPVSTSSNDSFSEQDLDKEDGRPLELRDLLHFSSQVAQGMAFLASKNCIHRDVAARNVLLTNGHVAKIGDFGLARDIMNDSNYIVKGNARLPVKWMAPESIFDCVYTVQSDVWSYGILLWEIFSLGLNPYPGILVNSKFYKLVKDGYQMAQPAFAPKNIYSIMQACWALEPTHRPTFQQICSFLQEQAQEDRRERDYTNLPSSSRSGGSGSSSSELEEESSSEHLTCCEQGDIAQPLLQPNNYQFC
# UniProt P41240: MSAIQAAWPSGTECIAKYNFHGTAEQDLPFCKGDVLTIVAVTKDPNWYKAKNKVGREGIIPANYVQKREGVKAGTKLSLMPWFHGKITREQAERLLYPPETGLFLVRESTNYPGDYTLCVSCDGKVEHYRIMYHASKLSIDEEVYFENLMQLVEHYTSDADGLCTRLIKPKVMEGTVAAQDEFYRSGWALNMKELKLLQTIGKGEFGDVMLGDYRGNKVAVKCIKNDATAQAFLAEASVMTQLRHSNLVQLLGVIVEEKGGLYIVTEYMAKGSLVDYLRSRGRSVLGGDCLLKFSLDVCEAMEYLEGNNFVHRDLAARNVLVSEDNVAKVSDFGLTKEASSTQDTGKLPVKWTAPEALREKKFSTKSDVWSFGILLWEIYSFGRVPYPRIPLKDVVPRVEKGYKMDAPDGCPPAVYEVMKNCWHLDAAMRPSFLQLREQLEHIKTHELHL
# UniProt P48729: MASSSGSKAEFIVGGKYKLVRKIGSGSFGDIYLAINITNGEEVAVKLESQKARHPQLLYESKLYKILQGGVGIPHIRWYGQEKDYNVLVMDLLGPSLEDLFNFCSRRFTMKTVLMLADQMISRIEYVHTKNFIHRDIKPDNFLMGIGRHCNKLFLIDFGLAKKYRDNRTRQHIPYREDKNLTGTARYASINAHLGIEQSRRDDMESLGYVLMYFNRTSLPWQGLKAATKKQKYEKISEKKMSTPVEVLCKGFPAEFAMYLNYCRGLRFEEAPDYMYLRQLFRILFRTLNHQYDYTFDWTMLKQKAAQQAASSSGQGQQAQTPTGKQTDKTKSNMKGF
# UniProt P48730: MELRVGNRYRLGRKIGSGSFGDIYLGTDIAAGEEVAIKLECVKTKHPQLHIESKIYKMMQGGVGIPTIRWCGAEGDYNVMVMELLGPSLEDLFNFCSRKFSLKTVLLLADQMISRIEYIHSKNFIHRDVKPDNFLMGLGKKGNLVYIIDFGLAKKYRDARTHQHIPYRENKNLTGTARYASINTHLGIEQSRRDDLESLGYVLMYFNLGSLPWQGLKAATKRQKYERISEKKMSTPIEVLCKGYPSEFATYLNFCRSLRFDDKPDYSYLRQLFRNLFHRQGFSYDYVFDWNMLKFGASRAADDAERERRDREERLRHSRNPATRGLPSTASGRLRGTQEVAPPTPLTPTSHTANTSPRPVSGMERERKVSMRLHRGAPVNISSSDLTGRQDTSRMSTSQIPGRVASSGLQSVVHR
# UniProt Q08345: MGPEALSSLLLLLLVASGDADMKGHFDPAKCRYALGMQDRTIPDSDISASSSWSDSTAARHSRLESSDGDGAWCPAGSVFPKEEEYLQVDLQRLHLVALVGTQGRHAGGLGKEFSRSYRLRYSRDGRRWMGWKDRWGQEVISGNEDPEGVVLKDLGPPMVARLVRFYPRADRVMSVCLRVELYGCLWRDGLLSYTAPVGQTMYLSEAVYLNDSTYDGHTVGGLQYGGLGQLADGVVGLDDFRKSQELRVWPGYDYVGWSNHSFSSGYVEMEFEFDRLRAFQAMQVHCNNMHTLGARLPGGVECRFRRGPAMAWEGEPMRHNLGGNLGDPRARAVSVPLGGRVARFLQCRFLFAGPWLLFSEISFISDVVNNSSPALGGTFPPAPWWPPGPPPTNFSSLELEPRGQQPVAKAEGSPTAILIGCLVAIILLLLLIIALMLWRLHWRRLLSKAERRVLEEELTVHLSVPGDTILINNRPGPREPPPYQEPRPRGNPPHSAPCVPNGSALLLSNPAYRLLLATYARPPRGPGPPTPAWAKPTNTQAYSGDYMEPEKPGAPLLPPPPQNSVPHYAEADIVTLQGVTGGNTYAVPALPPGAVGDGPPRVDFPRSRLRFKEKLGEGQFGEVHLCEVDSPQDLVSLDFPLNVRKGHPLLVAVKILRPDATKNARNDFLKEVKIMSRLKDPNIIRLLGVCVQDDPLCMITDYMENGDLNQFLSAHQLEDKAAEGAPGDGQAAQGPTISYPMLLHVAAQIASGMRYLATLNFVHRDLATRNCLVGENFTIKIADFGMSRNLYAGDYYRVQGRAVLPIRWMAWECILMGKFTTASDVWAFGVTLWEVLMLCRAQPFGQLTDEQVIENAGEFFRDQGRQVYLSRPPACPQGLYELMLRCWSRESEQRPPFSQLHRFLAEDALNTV
# UniProt Q9Y463, whole entry, looked up: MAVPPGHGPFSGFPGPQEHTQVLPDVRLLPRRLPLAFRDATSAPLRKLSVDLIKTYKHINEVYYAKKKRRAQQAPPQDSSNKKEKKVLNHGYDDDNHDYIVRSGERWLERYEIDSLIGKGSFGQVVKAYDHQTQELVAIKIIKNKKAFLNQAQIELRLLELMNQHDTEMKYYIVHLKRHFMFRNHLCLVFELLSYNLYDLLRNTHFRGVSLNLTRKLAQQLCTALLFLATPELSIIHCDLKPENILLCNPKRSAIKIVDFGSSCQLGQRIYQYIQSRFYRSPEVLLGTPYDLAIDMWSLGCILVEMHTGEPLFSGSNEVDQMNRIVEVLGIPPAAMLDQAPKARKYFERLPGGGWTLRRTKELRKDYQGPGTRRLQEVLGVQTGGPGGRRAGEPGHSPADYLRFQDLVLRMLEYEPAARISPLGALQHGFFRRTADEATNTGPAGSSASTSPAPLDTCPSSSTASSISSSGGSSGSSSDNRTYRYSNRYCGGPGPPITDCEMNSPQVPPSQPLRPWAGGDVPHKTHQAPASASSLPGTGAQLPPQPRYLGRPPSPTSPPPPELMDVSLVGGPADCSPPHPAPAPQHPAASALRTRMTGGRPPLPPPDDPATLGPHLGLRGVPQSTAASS
# UniProt Q92630: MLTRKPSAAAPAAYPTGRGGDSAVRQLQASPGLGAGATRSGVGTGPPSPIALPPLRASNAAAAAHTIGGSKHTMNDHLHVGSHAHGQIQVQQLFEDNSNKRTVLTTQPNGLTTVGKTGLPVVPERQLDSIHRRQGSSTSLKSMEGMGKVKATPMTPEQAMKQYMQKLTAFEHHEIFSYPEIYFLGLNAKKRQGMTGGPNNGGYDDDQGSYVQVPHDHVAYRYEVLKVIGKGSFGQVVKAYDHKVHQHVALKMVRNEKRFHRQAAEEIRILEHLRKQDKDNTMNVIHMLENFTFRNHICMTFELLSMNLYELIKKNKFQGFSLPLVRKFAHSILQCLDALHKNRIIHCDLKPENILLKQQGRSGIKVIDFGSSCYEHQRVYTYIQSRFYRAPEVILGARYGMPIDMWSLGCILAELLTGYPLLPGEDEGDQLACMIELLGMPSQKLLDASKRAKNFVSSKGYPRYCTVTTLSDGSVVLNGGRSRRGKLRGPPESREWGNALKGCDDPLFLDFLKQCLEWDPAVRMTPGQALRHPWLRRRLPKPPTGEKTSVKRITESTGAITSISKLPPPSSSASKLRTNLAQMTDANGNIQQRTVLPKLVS
# How the values were obtained:
# Assay in all cases: kinase-Nluc reporter destabilization hit call (1 = scored as downregulated) (binary); higher = compound decreases kinase abundance
# Details in all cases: K562; 2-18 h
# CDK7 = CDK7 (UniProt P50613)
# CDK9 = CDK9 (UniProt P50750)
# CHEK2 = CHEK2 (UniProt O96017)
# CSF1R = CSF1R (UniProt P07333)
# CSK = CSK (UniProt P41240)
# CSNK1A1 = CSNK1A1 (UniProt P48729)
# CSNK1D = CSNK1D (UniProt P48730)
# DDR1 = DDR1 (UniProt Q08345)
# DYRK1B = DYRK1B (UniProt Q9Y463)
# DYRK2 = DYRK2 (UniProt Q92630)
Compound,kinase-Nluc reporter destabilization hit call (CDK7),kinase-Nluc reporter destabilization hit call (CDK9),kinase-Nluc reporter destabilization hit call (CHEK2),kinase-Nluc reporter destabilization hit call (CSF1R),kinase-Nluc reporter destabilization hit call (CSK),kinase-Nluc reporter destabilization hit call (CSNK1A1),kinase-Nluc reporter destabilization hit call (CSNK1D),kinase-Nluc reporter destabilization hit call (DDR1),kinase-Nluc reporter destabilization hit call (DYRK1B),kinase-Nluc reporter destabilization hit call (DYRK2)
CCCn1cnc2c(NCc3ccccc3)nc(NC(CC)CO)nc21 (stereo not given) [Ca2+ channel agonist 1] (2.5 µM),inactive: 0,inactive: 0,inactive: 0,inactive: 0,inactive: 0,inactive: 0,inactive: 0,inactive: 0,inactive: 0,inactive: 0
CC(C)Oc1cc(Nc2nc(N[C@@H](C)c3ccc(F)cn3)ncc2Cl)n[nH]1 (10 µM),inactive: 0,inactive: 0,inactive: 0,inactive: 0,inactive: 0,inactive: 0,inactive: 0,inactive: 0,inactive: 0,inactive: 0
COc1cc(C(=O)NC2CCN(C)CC2)ccc1Nc1ncc2c(n1)N(C1CCCC1)CC(F)(F)C(=O)N2C (10 µM),inactive: 0,inactive: 0,inactive: 0,inactive: 0,inactive: 0,inactive: 0,inactive: 0,inactive: 0,inactive: 0,inactive: 0
Cc1c(NC(=O)c2cc3c(s2)CCCC3)cccc1-c1cn(C)c(=O)c(Nc2ccc([C@@H]3C(=O)N(C)CCN3C)cc2)n1 (10 µM),inactive: 0,inactive: 0,inactive: 0,inactive: 0,inactive: 0,inactive: 0,inactive: 0,inactive: 0,inactive: 0,inactive: 0
CN(C)CCOc1ccc(-c2nc(-c3ccncc3)c(-c3ccc4c(c3)CC/C4=N\O)[nH]2)cc1 (10 µM),inactive: 0,inactive: 0,inactive: 0,inactive: 0,inactive: 0,inactive: 0,inactive: 0,inactive: 0,inactive: 0,inactive: 0
CCCCNc1ncc(-c2ccc(CN3CCOCC3)cn2)c(NC2CCC(O)CC2)n1 (stereo not given) (10 µM),inactive: 0,inactive: 0,inactive: 0,inactive: 0,inactive: 0,inactive: 0,inactive: 0,inactive: 0,inactive: 0,inactive: 0
CC(C)C(=O)Nc1ncc(-c2cc(C(F)F)nn2-c2c(Cl)cccc2Cl)s1 (10 µM),active: 1,inactive: 0,inactive: 0,inactive: 0,inactive: 0,inactive: 0,inactive: 0,inactive: 0,inactive: 0,inactive: 0
"O=c1cc(-c2ccccc2)oc2c(O)c(O)ccc12 [7,8-Dihydroxyflavone] (10 µM)",inactive: 0,inactive: 0,inactive: 0,inactive: 0,inactive: 0,inactive: 0,inactive: 0,inactive: 0,inactive: 0,inactive: 0
O=C(Nc1ccc(-c2ccnc(Nc3ccc(N4CCOCC4)cc3)n2)cc1)C1CCCN1 (stereo not given) (10 µM),inactive: 0,inactive: 0,inactive: 0,inactive: 0,inactive: 0,inactive: 0,inactive: 0,inactive: 0,inactive: 0,inactive: 0
C/C=C(/C)C(=O)O[C@H]1Cc2cc3ccc(=O)oc3cc2OC1(C)C [Decursinol angelate] (10 µM),inactive: 0,inactive: 0,inactive: 0,inactive: 0,inactive: 0,inactive: 0,inactive: 0,inactive: 0,inactive: 0,inactive: 0
Brc1c(Br)c(Br)c2n[nH]nc2c1Br (10 µM),inactive: 0,inactive: 0,inactive: 0,inactive: 0,inactive: 0,inactive: 0,inactive: 0,inactive: 0,inactive: 0,inactive: 0
CN1CCN(C(=O)c2ccc(-c3ccc4c(C=O)c(O)ccc4c3)s2)CC1 (2.5 µM),inactive: 0,inactive: 0,inactive: 0,inactive: 0,inactive: 0,inactive: 0,inactive: 0,inactive: 0,inactive: 0,inactive: 0
Nc1nc(OCC2CCCCC2)c2[nH]cnc2n1 (10 µM),inactive: 0,inactive: 0,inactive: 0,inactive: 0,inactive: 0,inactive: 0,inactive: 0,inactive: 0,inactive: 0,inactive: 0
COCCOc1cc2nccc(Nc3n[nH]c(C)c3C)c2cc1S(=O)(=O)C(C)(C)C [RIP2 kinase inhibitor 2] (2.5 µM),inactive: 0,inactive: 0,inactive: 0,inactive: 0,inactive: 0,inactive: 0,inactive: 0,inactive: 0,inactive: 0,inactive: 0
COc1cc(F)cc([C@@H](CO)NC(=O)[C@@H](C)N2Cc3ccc(-c4nc(NC5CCOCC5)ncc4Cl)cc3C2=O)c1 [ERK1/2 inhibitor 2] (10 µM),inactive: 0,inactive: 0,inactive: 0,inactive: 0,inactive: 0,inactive: 0,inactive: 0,inactive: 0,inactive: 0,inactive: 0

# Given with tabs: part of the list above
Compound	kinase-Nluc reporter destabilization hit call (CDK7)	kinase-Nluc reporter destabilization hit call (CDK9)	kinase-Nluc reporter destabilization hit call (CHEK2)	kinase-Nluc reporter destabilization hit call (CSF1R)	kinase-Nluc reporter destabilization hit call (CSK)	kinase-Nluc reporter destabilization hit call (CSNK1A1)	kinase-Nluc reporter destabilization hit call (CSNK1D)	kinase-Nluc reporter destabilization hit call (DDR1)	kinase-Nluc reporter destabilization hit call (DYRK1B)	kinase-Nluc reporter destabilization hit call (DYRK2)
C/C=C(/C)C(=O)O[C@H]1Cc2cc3ccc(=O)oc3cc2OC1(C)C [Decursinol angelate] (10 µM)	inactive: 0	inactive: 0	inactive: 0	inactive: 0	inactive: 0	inactive: 0	inactive: 0	inactive: 0	inactive: 0	inactive: 0
Brc1c(Br)c(Br)c2n[nH]nc2c1Br (10 µM)	inactive: 0	inactive: 0	inactive: 0	inactive: 0	inactive: 0	inactive: 0	inactive: 0	inactive: 0	inactive: 0	inactive: 0
